In paper PMC9839843:
No constants are given. Whether binding was seen depends on the method and setting. In cells and extracts the contact can be indirect. Some binding calls cover weakened binding; strength is not graded here.

Sequences of proteins named here, by UniProt entry; tags and fusion partners are left off. A change or cut given only in a name is not applied to a line headed by its entry. A line that says so, or that is headed by a name, gives the form on record, which may keep a tag or linker.
Escherichia coli-expressed GST-TRIP12 (Q14669, form named): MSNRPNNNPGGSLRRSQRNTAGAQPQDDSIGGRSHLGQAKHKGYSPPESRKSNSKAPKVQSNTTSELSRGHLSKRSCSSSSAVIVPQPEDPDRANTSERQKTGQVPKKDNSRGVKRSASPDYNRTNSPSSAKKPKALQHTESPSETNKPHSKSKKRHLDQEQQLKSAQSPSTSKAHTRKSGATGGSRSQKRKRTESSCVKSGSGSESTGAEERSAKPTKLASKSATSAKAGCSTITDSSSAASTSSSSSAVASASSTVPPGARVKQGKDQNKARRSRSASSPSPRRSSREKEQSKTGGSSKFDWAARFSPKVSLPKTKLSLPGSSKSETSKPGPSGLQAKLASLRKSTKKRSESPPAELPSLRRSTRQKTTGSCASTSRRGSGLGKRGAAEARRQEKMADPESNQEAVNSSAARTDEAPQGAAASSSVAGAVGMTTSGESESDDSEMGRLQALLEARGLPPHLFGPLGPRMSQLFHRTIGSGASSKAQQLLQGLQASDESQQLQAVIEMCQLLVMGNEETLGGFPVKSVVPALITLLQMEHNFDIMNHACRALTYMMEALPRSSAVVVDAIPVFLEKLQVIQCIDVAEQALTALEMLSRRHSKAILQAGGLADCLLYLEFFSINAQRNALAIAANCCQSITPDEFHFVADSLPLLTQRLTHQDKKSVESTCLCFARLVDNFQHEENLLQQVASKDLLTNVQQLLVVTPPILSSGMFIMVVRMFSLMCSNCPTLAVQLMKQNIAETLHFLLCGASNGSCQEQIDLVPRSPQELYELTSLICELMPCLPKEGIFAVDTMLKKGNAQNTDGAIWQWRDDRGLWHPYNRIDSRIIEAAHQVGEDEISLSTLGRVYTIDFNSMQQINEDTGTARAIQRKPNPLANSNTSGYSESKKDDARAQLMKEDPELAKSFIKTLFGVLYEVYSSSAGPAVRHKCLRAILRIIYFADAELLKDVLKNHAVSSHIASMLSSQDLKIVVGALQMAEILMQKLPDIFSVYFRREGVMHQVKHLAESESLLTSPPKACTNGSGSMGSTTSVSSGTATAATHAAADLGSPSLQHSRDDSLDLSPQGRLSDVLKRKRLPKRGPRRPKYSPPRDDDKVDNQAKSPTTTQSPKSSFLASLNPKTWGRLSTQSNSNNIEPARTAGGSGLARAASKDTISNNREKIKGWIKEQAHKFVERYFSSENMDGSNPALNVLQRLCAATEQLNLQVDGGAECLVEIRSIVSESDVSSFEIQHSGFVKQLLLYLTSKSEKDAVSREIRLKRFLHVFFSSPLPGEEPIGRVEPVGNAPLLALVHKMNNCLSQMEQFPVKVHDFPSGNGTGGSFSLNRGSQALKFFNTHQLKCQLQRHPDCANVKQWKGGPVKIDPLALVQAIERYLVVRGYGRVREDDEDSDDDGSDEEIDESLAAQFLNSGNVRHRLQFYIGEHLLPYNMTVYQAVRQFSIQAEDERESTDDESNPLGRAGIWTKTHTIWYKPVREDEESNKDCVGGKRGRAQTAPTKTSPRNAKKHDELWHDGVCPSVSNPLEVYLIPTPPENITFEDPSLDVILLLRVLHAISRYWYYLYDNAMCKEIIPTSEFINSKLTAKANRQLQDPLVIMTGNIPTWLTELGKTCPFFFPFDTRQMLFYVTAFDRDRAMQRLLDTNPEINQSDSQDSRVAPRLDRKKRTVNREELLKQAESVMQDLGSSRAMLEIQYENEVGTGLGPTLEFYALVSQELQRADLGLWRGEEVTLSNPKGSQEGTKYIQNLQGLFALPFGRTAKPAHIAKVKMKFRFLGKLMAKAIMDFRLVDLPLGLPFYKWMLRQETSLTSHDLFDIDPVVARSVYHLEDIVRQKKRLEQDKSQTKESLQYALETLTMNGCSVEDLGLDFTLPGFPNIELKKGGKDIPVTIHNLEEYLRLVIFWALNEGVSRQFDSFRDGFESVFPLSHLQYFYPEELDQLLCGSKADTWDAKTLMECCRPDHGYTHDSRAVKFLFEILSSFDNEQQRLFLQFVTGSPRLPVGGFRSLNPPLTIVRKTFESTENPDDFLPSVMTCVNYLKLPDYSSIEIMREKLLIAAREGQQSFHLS
UniProt P01106: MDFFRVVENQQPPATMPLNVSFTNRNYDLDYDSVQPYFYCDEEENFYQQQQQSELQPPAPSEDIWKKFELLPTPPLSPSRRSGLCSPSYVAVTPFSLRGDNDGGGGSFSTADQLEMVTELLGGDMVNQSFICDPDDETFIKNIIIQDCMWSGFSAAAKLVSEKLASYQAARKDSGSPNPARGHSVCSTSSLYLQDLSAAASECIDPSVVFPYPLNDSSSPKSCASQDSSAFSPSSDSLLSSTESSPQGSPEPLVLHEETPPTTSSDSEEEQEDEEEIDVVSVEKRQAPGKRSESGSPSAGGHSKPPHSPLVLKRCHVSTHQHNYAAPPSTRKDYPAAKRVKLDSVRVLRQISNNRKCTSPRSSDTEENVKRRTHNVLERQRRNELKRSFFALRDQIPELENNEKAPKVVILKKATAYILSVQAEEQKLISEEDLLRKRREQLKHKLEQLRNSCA
UniProt Q12962: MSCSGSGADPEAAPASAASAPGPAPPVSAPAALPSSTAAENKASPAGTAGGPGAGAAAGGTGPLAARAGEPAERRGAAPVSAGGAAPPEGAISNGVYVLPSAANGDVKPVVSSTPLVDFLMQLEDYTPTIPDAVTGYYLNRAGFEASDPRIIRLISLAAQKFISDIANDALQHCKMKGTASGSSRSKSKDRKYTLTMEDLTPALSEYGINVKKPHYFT

Legend:
[1] = biological target: Escherichia coli-expressed GST-TRIP12 (human) (UniProt Q14669); assay: pull-down; GST pulldown assay in vitro; Escherichia coli-expressed GST-TRIP12 as bait (told for Figure 8D)
[2] = biological target: GFP-labelled TRIP12 (human) (UniProt Q14669); assay: co-IP; MCF7 cells transfected with tagged constructs; lysates incubated overnight at 4°C with antibodies and Protein A/G beads, then immunoblot; for Figures 7A,B and 8A,B cells were treated with Z363 (7.5 μg/ml) for 24 h
[3] = biological target: endogenous MYC (human (endogenous in MCF7)) (UniProt P01106); assay: co-IP; endogenous proteins in MCF7 cell lysates; immunoprecipitation with IgG, anti-MYC, anti-TAF10 or anti-TRIP12 antibodies, then Western blotting

Row | binding [1] | binding [2] | binding [3] | Substance
1 | binds | binds |  | Flag-labelled TAF10 (from UniProt Q12962 1-218)
2 | binds |  |  | MYC (GST pulldown assay in vitro) (from UniProt P01106 1-454)
3 |  |  | binds | endogenous TAF10 (from UniProt Q12962 1-218)
